Patent US20100323456A1, “Endothelin Receptors in Morphine Withdrawal” (priority 2006, published 2010)
Like-named read-outs stand apart in the source and are kept apart here.

Target: G-proteins coupled to opioid and ET receptors
Assay: [35S]GTPγS binding assay (G-protein stimulation) in neuronal membranes of neonatal rat brain, placebo and morphine withdrawal groups
Format: biochemical
Conditions: read-out: EC50 for stimulated [35S]GTPγS binding

`CN1CC[C@]23c4c5ccc(O)c4O[C@H]2[C@@H](O)C=C[C@H]3[C@H]1C5` [Morphine] gave an EC50 (morphine withdrawal group) of 0.02878 ± 0.00017 µM and an EC50 (placebo group) of 0.1706 ± 0.0001 µM.
